This experiment addresses NRP-1 b1b2 with mutated CendR binding pocket. Put plainly: nanoparticle binding to recombinant protein.

These are yes or no findings as the source states them, for the method shown.

B1: PL3-functionalized silver nanoparticles (biotinylated PL3 peptide on NeutrAvidin-coated AgNPs) (peptide)
peptide: AGRGRLVR
modifications: biotinylated; bound to NeutrAvidin on dye-labeled PEGylated silver nanoparticles
B1: the binding entry is “no binding”.
